Publication PMC6135860 (Neuropsychopharmacology, 2018)

Experiments:
[1] = system: PDE4 binding sites in wild-type mouse brain membranes; assay: [3H]-rolipram radioligand binding to brain membranes
[2] = system: PDE4 binding sites in humanized PDE4D mouse brain membranes; assay: as above; settings: for Hill slope: hPDE4D

Row | SMILES | Hill slope [1] | Hill slope [2] | share of total binding accounted for by high affinity Ki1 sites ([2]; humanized PDE4D mice) [%]
1 | O=C(O)Cc1ccc(Cc2cc(-c3cccc(Cl)c3)nc(C(F)(F)F)c2)cc1 [BPN14770] | −0.89 ± 0.06 | −0.56 ± 0.02 | 26.7
2 | COc1ccc(C2CNC(=O)C2)cc1OC1CCCC1 (centres unmarked) [Rolipram] | −0.75 ± 0.08 | −0.71 ± 0.02 | 
